According to the supplement of paper PMC7666118:
Some of the results follow.

Amino acid sequences for entries named in this document (tags omitted). A change or cut given only in a name is not applied to a line headed by its entry.
UniProt Q8N5I2: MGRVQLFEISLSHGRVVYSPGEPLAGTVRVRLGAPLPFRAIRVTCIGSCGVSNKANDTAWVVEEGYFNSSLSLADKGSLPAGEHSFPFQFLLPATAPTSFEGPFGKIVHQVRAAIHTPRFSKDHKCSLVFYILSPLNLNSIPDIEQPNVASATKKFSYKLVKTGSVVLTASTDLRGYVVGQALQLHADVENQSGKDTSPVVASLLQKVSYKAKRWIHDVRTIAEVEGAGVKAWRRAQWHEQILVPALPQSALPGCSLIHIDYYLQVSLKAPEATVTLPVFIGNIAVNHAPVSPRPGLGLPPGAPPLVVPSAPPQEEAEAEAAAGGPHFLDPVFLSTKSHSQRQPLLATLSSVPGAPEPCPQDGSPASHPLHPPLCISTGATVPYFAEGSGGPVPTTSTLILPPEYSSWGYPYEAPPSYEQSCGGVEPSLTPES
UniProt P54259: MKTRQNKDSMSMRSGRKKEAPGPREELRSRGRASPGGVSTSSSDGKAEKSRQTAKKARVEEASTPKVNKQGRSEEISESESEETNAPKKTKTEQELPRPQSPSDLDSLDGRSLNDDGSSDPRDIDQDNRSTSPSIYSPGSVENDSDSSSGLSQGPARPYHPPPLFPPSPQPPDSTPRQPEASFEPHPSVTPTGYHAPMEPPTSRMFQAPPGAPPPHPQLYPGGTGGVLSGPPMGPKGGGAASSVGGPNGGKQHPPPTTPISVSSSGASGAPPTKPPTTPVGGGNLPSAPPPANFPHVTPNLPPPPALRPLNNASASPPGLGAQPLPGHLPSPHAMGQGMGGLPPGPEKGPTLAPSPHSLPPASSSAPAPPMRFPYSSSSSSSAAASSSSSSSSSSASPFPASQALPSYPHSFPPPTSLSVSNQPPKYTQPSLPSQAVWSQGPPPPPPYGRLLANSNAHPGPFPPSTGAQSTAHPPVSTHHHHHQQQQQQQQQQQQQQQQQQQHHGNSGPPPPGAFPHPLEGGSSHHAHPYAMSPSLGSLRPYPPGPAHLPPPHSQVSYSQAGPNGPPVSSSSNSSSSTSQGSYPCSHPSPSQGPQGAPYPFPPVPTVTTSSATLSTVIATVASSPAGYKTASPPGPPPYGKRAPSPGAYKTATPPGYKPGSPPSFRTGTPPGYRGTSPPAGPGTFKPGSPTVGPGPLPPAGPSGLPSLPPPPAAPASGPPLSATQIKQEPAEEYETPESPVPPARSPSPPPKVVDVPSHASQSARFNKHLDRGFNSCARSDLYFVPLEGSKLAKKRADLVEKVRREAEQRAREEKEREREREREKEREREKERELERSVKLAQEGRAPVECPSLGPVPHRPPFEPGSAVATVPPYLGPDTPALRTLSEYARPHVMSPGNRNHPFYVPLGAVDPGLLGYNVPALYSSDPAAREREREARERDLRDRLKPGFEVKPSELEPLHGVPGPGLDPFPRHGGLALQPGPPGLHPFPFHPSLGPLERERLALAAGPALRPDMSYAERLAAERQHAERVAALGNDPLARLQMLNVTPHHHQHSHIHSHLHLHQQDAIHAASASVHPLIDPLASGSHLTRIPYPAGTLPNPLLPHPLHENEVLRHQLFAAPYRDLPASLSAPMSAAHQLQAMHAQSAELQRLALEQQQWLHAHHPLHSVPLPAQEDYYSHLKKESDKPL
UniProt Q5T9A4: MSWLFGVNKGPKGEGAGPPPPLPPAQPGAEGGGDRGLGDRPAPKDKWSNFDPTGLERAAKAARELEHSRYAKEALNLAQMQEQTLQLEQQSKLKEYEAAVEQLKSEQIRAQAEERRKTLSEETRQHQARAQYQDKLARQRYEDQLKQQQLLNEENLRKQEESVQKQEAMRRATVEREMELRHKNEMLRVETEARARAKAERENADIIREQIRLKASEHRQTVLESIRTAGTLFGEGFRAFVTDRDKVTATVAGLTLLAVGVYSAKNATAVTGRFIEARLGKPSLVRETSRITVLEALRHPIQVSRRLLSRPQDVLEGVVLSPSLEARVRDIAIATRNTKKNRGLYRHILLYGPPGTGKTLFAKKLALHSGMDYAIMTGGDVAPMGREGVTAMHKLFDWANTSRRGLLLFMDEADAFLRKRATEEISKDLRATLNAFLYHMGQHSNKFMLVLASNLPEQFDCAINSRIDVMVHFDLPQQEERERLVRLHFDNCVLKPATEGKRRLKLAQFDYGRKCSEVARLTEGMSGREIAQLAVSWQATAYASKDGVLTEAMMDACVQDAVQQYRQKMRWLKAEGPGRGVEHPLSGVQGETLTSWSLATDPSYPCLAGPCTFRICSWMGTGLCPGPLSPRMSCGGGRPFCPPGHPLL
UniProt Q8IV38: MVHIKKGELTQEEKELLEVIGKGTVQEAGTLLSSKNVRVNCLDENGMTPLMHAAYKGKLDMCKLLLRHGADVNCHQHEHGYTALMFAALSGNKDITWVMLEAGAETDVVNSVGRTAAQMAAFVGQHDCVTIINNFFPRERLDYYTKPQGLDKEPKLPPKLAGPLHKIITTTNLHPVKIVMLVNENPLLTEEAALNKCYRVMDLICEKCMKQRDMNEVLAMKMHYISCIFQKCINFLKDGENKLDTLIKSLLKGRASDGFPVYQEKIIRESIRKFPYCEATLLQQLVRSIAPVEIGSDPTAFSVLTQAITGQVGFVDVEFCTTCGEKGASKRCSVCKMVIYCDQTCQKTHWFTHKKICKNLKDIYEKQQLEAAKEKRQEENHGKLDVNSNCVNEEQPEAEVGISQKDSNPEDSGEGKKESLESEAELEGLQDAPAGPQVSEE
UniProt P55008: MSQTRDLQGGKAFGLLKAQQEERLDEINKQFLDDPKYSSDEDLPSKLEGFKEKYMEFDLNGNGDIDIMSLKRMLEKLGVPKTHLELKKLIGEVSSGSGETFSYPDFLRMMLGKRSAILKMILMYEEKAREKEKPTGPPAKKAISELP
UniProt P30837: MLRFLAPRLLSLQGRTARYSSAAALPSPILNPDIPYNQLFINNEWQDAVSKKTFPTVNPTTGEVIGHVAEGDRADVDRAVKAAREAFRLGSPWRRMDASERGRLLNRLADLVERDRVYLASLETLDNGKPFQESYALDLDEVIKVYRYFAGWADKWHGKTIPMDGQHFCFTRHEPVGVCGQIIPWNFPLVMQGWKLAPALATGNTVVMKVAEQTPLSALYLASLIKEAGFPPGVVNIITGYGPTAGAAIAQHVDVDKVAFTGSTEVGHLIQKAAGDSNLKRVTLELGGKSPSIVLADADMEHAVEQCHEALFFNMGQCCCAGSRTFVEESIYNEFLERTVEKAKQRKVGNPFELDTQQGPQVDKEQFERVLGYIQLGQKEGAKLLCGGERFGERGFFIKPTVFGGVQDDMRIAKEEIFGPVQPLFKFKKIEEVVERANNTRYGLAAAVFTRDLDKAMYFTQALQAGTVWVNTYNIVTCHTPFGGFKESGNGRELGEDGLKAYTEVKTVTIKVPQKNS
UniProt P36404: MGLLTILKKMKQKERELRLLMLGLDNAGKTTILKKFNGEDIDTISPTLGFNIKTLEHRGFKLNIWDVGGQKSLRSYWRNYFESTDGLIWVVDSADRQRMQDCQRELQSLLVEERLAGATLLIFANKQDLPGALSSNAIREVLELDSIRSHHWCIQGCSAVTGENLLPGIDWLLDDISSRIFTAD
UniProt Q9NXU5: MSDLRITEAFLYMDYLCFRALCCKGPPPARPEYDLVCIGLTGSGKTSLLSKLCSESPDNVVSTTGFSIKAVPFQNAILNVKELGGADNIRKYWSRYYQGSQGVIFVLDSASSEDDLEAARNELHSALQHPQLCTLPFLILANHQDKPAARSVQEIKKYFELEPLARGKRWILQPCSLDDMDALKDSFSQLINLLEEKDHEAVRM
UniProt P05067, whole entry: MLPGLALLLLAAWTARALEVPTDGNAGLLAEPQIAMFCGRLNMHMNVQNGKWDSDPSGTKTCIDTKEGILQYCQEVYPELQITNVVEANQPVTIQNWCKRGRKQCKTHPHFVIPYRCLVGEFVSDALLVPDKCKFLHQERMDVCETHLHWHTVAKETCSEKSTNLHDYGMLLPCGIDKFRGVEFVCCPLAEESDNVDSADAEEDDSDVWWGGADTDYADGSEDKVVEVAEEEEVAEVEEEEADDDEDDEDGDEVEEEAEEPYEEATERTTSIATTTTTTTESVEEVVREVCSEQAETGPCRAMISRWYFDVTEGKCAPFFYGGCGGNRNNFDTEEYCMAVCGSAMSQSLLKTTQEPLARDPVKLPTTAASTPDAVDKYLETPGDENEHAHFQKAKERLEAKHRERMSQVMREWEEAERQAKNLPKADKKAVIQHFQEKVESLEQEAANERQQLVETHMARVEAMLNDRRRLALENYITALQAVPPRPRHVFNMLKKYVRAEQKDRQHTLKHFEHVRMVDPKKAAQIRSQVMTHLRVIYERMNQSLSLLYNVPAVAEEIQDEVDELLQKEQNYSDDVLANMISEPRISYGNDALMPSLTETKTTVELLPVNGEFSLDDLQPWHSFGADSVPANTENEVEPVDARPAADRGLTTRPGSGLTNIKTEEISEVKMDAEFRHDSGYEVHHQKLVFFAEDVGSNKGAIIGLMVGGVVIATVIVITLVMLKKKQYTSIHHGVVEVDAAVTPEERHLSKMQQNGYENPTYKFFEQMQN
UniProt Q9NVI7: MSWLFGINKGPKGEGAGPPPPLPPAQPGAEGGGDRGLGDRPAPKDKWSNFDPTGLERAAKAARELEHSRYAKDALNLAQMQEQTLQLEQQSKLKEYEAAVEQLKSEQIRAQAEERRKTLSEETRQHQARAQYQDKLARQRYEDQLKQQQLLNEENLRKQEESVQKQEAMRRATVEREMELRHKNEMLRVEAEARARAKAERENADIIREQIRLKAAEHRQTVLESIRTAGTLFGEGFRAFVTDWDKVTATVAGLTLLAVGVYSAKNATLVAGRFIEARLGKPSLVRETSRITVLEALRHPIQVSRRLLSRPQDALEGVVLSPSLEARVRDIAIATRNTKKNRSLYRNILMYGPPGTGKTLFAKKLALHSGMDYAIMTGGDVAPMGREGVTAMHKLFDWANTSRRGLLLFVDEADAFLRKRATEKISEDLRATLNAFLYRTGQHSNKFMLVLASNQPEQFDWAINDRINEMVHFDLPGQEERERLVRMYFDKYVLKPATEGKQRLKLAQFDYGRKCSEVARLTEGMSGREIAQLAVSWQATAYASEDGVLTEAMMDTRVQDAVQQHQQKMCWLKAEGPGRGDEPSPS
UniProt Q6PL18: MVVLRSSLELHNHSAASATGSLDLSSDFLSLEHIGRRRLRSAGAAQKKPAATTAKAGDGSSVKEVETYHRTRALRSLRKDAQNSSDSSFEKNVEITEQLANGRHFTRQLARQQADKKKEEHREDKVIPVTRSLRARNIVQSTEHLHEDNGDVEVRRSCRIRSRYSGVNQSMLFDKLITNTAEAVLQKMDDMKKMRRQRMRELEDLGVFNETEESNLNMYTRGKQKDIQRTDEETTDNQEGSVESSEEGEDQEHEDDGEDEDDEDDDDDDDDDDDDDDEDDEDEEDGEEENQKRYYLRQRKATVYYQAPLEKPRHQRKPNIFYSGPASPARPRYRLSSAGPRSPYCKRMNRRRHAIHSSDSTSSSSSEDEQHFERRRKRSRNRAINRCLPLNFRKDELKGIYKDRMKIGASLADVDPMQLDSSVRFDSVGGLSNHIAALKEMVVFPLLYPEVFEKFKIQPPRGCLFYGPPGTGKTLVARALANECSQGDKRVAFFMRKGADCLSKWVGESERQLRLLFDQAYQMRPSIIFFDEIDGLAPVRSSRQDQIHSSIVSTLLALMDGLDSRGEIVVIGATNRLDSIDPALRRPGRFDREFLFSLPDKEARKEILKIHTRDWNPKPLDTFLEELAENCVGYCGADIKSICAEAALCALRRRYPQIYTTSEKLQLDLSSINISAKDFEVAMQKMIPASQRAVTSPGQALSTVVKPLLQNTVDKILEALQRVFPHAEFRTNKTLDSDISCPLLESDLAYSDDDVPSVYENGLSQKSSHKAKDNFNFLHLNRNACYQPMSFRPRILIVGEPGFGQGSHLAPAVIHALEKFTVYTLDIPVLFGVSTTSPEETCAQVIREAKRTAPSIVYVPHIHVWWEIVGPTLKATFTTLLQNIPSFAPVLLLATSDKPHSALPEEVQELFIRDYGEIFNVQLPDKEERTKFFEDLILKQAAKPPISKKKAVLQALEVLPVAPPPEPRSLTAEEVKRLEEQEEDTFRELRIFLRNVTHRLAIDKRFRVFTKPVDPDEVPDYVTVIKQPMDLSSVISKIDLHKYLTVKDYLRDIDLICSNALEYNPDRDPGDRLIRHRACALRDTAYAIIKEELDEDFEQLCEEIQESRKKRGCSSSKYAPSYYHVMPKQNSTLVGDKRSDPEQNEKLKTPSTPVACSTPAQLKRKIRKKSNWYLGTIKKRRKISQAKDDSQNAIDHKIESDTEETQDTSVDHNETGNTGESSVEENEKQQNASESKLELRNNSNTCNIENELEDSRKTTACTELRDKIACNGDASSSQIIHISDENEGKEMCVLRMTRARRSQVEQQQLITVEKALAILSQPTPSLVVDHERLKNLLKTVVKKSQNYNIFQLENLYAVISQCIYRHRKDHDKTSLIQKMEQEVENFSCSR

Compound: COc1ccc(Cn2ccc3cc(C)c(C(=O)NO)cc32)cc1
Assay: dose-dependent thermal stabilisation call (2D-TPP, DLPTP, 10% FDR) (binary (1 = stabilised)); higher = stabilised by the compound
Conditions: system: HL-60 intact cells; concentration range 0.04-10 µM
Description: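 2D thermal proteome profiling in intact HL-60 cells treated with BRD-3811 (0, 0.04, 0.29, 2, 10 uM) for 90 min at 37 C, then heated 3 min at one of 12 temperatures (42-63.9 C). Soluble protein was quantified by TMT10 MS. The value is the DLPTP call of the paper: dose-dependent thermal stabilisation over all temperatures at 10% FDR (F-test of a dose-response against a flat model); one experiment, one call per tested protein.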

Row | Target | dose-dependent thermal stabilisation call
1 | ARL6IP6 (UniProt Q8N6S5) | inactive: 0
2 | ARL6IP4 (UniProt Q66PJ3) | inactive: 0
3 | ALDOC (UniProt P09972) | inactive: 0
4 | ATM (UniProt Q13315) | inactive: 0
5 | ARRDC1 (UniProt Q8N5I2) | inactive: 0
6 | ATN1 (UniProt P54259) | inactive: 0
7 | ATAD3B (UniProt Q5T9A4) | inactive: 0
8 | ANKMY2 (UniProt Q8IV38) | inactive: 0
9 | ASMTL (UniProt O95671) | inactive: 0
10 | AIF1 (UniProt P55008) | inactive: 0
11 | ALDH1B1 (UniProt P30837) | inactive: 0
12 | ARMC1 (UniProt Q9NVT9) | inactive: 0
13 | ASPSCR1 (UniProt Q9BZE9) | inactive: 0
14 | ARL2 (UniProt P36404) | inactive: 0
15 | ARL15 (UniProt Q9NXU5) | inactive: 0
16 | ALAD (UniProt P13716) | inactive: 0
17 | ATE1 (UniProt O95260) | inactive: 0
18 | AKAP2 | inactive: 0
19 | APP (UniProt P05067) | inactive: 0
20 | ARHGAP1 (UniProt Q07960) | inactive: 0

Row | Target | dose-dependent thermal stabilisation call
21 | ARS2 (UniProt Q9BXP5) | inactive: 0
22 | ARHGAP27 (UniProt Q6ZUM4) | inactive: 0
23 | ARFGAP2 (UniProt Q8N6H7) | inactive: 0
24 | AKIRIN2 (UniProt Q53H80) | inactive: 0
25 | ANKRD44 (UniProt Q8N8A2) | inactive: 0
26 | ATG3 (UniProt Q9NT62) | inactive: 0
27 | ANKRD17 (UniProt O75179) | inactive: 0
28 | ARL6 (UniProt Q9H0F7) | inactive: 0
29 | ANKRD50 (UniProt Q9ULJ7) | inactive: 0
30 | AGFG1 (UniProt P52594) | inactive: 0
31 | ATAD3A (UniProt Q9NVI7) | inactive: 0
32 | ALKBH2 (UniProt Q6NS38) | inactive: 0
33 | APLP2 (UniProt Q06481) | inactive: 0
34 | ALDH16A1 (UniProt Q8IZ83) | inactive: 0
35 | APOB48R (UniProt Q0VD83) | inactive: 0
36 | AIM1 | inactive: 0
37 | ATAD2 (UniProt Q6PL18) | inactive: 0
38 | ARL1 (UniProt P40616) | inactive: 0
39 | ATG2B (UniProt Q96BY7) | inactive: 0
40 | ANKRD52 (UniProt Q8NB46) | inactive: 0

Rewritten in CSV form: part of the list above.
Row,Target,dose-dependent thermal stabilisation call
3,ALDOC (UniProt P09972),inactive: 0
25,ANKRD44 (UniProt Q8N8A2),inactive: 0
34,ALDH16A1 (UniProt Q8IZ83),inactive: 0
